Data taken from patent US20260070944A1, “PEPTIDE PROMOTING TYROSINASE ACTIVITY AND USE THEREOF” (HYSENSBIO CO., LTD, priority 2022, published 2026).
Part of at least one peptide drawing is inferred or uncertain, most often the ends. Where no end group is shown, it is not given here.

How the values were obtained:
Type in all cases: cell-based
B16F10 cells [1] = experiment: Quantification of melanin content in B16F10 cells; conditions: 72 hours, corrected for protein level
[2] = system: tyrosinase activity in B16F10 melanocytes; experiment: Measurement of tyrosinase activity (cell lysate reacted with L-DOPA, absorbance at 475 nm); conditions: 72 hours
[3] = system: tyrosinase activity in B16F10 melanocytes; experiment: Measurement of tyrosinase activity 2 (fixed cells reacted with L-DOPA, light microscope); conditions: different concentrations (50, 100, 200 μM), 72 hours
B16F10 cells [4] = experiment: Quantification of secreted melanin (absorbance of medium at 405 nm); conditions: 72 hours

Sequence: KYKQKRRSYK [KH001, KYKQKRRSYK]
- melanogenesis increase compared to the control (melanin content in cells) (B16F10 cells [1]; KH001 50 μM): 38%
- melanogenesis increase compared to the control (melanin content in cells) (B16F10 cells [1]; KH001 100 μM): 81%
- melanogenesis increase compared to the control (melanin content in cells) (B16F10 cells [1]; KH001 200 μM): 176%
- tyrosinase activity increase compared to the control ([2]; KH001 50 μM): 101%
- tyrosinase activity increase compared to the control ([2]; KH001 100 μM): 443%
- tyrosinase activity increase compared to the control ([2]; KH001 200 μM): 433%
- tyrosinase activity compared to the control (black colour with L-DOPA in fixed cells) [3]: significantly increased
- melanin secreted into the culture medium, increase compared to the control (B16F10 cells [4]; first of the concentrations (50 μM)): 17%
- melanin secreted into the culture medium, increase compared to the control (B16F10 cells [4]; second of the concentrations (100 μM)): 31%
- melanin secreted into the culture medium, increase compared to the control (B16F10 cells [4]; third of the concentrations (200 μM)): 37%
